These results are taken from PubChem BioAssay AID1508600 (Functional Genomics Laboratory (NCATS/FGL), 2020).

Hit rate of the full screen: of about 53,000 sequences, about 3,700 (7%) were called active.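 How the source made its calls: active means gene knockdowns whose robust z-score for IL-1 alpha signal is at least 2 or at most -2, so actives lie on both sides; inactive means the rest.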 Some of the results follow.

The test in a line: Components of the Cytosolic LPS Sensing Pathway: Gene Identification via Genome-wide siRNA Screen.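 Further: robust z of the log signal after scaling to non-targeting control siRNA wells of the plate.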 To be noted: RAW264.7 macrophages, IL-1a HTRF, actives lie on both sides, screened at 100 nM (by protocol), cells primed 5 h with Pam3CSK4 first. An outline of the steps:
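Knockdown: 100 nM siRNA, 48h, RAW264.7. Stimulation: Pam3CSK4 5 h, then LipidA via TransIT-TKO 24 h. Output: supernatant IL-1a HTRF, negative-control-normalized, log robust z-score; viability by CellTiter-Glo.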
(In general: In TR-FRET formats the signal depends on donor and acceptor labels being close together.)
Take CGGGCUAUCUGGAACUAUATT against Sesn1: the z-score is inactive: -0.466.

For CCAUCCAGAUUUAAUAACCTT against Dcbld1, the z-score was inactive: -0.955.

Take GCUGACACAAAACGCAGUCTT against Kcna4: the z-score is inactive: 0.153.

Consider GGUGUCCCAGAGUGUAUAATT against Olfr1499, for which the z-score was inactive: -0.697.

As for GGAGGUCUACCAUUUCACCTT against Cops4, the z-score is inactive: -0.708.

For GCACAAGUUCAGAAAUGAATT against Sp3os, the z-score is inactive: 0.521.

With GGCCUACCAGAGAUUUAGATT against Ptgfr, the z-score was inactive: 1.16.

CGGCGGAUCUAUGAAGUAGTT against Mrpl1: the z-score was inactive: 0.105.

Consider CGGCUGUGUGCAUUUAAAGTT against Bmpr2, for which the z-score was inactive: 0.616.

CCCUGAUGACAGAAGAAUCTT against Tyms: the z-score was inactive: -0.802.

As to GGUUACAGAGCAAAGUCCUTT against Zfp638, the z-score was inactive: -0.555.

GGCCAAGUCUGGAAUCACUTT against Angel2: the z-score was active: -2.42.

Turning to GGAUAAGAAACACAAGAAGTT against Srrm1, the z-score was active: 2.04.

Turning to GAGCCAAAUCAGGAACAGCTT against Trim29, the z-score was inactive: 1.4.

Regarding GCAACGACUCUAAUGACUUTT against Slc38a1, the z-score was inactive: -0.515.

For the sequence CAGUUCCGUACAGUUUUACTT against H3c1, the z-score is inactive: 1.16.

For the sequence GCUGAUUUCCAAAGAUAAUTT against Glycam1, the z-score was inactive: -1.08.

Consider CCACAUCUAGGCAAGGAACTT against Pmel, for which the z-score was inactive: -0.909.

Regarding GGGACCCAGACAUUACAUGTT against Cldn6, the z-score is inactive: 0.445.

With CCCUCAAAUAACAUCCAGGTT against Sh3d21, the z-score was inactive: -1.93.

On to GGAGCUGAAAAUCCAGCUGTT against Sdsl, for which the z-score was inactive: -0.102.

For CCAGAUCGGGAAAAAGGGUTT against Tsn, the z-score is active: -2.04.

As to CGGCUUUGCACCAUACUUATT against Galnt12, the z-score was inactive: 0.601.

As for GCGGACCUUGUCCUAUAACTT against Slc9a2, the z-score is inactive: -1.5.

GGACAGAUUUUCACCAUUCTT against Slc1a4: the z-score was inactive: -0.593.

As for GGAAAGAAAUGAAUCAGUATT against Rnf216, the z-score is inactive: 0.882.

Regarding CGAAGUGGUCAAGUUCUCUTT against Fbxo17, the z-score was active: -2.09.

On to GGCACUUUUGAUUUCAGAUTT against Nrd1, for which the z-score is active: 3.52.

CCUUCUAUUUAUAAGACCUTT against Lrch4: the z-score is inactive: 1.04.

As for GGACUCACUCCUUCCAUCATT against Pphln1, the z-score is inactive: 0.386.
